These results are taken from article doi:10.1101/2022.03.09.483624.

By UniProt entry, the sequences of proteins in these tests, tags left out.
UniProt Q14676, whole entry: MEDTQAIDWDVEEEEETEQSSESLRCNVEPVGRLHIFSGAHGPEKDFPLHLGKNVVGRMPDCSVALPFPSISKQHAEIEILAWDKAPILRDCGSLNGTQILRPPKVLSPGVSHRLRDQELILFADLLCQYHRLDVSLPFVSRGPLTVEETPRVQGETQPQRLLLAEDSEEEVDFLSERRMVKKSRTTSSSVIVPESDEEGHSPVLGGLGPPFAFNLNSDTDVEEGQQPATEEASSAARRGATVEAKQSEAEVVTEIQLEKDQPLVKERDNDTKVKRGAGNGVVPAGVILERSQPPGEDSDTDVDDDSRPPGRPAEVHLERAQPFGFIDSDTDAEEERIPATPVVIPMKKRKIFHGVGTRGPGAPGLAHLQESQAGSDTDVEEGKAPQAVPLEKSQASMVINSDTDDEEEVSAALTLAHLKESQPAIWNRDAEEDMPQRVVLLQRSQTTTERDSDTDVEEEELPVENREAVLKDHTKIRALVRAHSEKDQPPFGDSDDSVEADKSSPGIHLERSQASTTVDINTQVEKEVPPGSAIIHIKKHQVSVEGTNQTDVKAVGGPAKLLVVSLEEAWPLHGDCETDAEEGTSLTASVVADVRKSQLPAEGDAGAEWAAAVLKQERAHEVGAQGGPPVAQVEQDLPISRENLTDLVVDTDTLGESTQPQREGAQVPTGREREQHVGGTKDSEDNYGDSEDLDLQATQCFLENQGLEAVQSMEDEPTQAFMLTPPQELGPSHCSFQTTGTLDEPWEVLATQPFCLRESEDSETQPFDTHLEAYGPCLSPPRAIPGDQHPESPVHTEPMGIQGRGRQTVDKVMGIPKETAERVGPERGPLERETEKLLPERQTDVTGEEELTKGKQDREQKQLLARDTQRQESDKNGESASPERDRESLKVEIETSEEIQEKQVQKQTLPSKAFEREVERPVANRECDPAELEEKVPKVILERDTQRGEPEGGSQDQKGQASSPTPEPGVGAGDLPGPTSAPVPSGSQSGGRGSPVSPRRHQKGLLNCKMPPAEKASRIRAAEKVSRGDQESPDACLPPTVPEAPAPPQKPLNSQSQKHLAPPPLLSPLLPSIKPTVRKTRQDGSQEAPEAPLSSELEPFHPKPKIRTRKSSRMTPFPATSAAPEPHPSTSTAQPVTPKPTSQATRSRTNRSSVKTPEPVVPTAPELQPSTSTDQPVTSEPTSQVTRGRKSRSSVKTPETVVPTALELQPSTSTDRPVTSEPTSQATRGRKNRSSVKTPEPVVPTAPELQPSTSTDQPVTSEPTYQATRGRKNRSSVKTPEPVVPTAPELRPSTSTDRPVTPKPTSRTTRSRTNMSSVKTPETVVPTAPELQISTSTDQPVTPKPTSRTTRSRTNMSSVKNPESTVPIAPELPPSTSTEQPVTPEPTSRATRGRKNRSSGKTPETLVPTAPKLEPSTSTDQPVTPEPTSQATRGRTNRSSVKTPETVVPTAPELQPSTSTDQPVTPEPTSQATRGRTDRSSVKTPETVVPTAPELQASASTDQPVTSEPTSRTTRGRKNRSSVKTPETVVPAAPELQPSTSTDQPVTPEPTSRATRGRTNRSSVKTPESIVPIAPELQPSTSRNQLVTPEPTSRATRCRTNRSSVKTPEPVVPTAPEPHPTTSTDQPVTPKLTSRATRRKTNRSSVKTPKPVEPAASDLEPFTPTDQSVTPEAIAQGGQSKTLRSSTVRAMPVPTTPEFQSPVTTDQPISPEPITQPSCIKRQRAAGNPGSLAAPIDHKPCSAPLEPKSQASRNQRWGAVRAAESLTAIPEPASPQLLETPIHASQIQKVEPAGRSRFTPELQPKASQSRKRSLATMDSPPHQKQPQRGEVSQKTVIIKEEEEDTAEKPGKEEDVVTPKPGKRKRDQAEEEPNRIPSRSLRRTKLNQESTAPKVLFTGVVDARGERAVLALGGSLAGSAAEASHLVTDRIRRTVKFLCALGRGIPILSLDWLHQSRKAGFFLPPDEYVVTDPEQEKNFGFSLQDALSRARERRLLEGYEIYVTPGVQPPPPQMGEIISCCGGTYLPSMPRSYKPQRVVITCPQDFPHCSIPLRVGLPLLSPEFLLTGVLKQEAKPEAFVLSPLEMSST

For this test, the target named is T1, Sin3B-FLAG (UniProt O75182).
T1 sequence: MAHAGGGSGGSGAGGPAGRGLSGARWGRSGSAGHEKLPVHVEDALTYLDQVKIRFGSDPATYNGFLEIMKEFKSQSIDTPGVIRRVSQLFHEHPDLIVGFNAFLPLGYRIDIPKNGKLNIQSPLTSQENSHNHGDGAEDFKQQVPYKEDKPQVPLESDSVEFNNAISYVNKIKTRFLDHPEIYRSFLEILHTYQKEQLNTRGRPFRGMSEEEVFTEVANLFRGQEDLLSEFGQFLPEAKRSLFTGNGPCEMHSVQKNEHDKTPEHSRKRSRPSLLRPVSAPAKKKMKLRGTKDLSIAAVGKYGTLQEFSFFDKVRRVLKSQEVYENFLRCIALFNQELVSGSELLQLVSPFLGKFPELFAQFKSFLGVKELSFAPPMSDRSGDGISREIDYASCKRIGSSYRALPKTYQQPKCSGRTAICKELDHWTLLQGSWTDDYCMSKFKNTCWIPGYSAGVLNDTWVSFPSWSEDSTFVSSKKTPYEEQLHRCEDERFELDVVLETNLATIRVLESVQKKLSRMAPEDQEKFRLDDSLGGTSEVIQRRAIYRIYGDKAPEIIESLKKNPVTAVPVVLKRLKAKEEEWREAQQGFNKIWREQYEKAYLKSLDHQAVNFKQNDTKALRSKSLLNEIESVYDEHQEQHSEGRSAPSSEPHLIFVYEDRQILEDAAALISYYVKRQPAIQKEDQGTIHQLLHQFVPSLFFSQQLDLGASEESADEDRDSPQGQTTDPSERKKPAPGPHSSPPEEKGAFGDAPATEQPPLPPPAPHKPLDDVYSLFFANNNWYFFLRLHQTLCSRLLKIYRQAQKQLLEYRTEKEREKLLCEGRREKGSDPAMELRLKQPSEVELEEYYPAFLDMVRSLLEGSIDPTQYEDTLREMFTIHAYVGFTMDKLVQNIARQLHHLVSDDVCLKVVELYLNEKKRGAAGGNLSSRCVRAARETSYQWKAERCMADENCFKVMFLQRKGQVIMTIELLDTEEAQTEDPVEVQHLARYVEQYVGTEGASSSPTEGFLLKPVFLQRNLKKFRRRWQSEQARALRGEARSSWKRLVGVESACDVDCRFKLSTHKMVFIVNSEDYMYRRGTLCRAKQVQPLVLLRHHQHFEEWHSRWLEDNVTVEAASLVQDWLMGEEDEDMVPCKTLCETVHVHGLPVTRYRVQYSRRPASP
The test is described as follows: co-IP.

These are yes or no findings as the source states them, for the method shown. In cells and extracts the contact can be indirect. Some entries that bind do so weakly or less than the wild type. Tags and fused reporters may be left off the sequences shown.

Take MDC1-GFP (from UniProt Q14676 1-2089): the binding entry is “binds”.
Regarding “Mediator of DNA Damage Checkpoint 1 (MDC1), endogenous (from UniProt Q14676 1-2089)”, the binding result is “binds”.
